At least one compound was matched to its structure with a doubt left.
Assay: stability of adduct 2b in the presence of cysteine, by HPLC
Assay type: physicochemical
Settings: 2b 0.5 mM, cysteine 2.5 mM, over 27 h

SMILES: N[C@@H](CCC(=O)N[C@@H](CSCC1=CCCCC1=O)C(=O)NCC(=O)O)C(=O)O [Compound 2b]
- conversion to 4: less than 1%
